Article PMC4591814
Results are given in words; binding and its absence hold for the method and conditions named. Binding seen in cells or lysates may run through a third protein. Some results given as binding are weak or reduced against the parent protein; the word gives no strength. Where a sequence is shown, tags or fusion partners need not be part of it. Blank lines part the entries; values can stand above or below the molecule they belong to.

Amino acid sequences for entries named in this document (tags omitted).
UniProt P38398: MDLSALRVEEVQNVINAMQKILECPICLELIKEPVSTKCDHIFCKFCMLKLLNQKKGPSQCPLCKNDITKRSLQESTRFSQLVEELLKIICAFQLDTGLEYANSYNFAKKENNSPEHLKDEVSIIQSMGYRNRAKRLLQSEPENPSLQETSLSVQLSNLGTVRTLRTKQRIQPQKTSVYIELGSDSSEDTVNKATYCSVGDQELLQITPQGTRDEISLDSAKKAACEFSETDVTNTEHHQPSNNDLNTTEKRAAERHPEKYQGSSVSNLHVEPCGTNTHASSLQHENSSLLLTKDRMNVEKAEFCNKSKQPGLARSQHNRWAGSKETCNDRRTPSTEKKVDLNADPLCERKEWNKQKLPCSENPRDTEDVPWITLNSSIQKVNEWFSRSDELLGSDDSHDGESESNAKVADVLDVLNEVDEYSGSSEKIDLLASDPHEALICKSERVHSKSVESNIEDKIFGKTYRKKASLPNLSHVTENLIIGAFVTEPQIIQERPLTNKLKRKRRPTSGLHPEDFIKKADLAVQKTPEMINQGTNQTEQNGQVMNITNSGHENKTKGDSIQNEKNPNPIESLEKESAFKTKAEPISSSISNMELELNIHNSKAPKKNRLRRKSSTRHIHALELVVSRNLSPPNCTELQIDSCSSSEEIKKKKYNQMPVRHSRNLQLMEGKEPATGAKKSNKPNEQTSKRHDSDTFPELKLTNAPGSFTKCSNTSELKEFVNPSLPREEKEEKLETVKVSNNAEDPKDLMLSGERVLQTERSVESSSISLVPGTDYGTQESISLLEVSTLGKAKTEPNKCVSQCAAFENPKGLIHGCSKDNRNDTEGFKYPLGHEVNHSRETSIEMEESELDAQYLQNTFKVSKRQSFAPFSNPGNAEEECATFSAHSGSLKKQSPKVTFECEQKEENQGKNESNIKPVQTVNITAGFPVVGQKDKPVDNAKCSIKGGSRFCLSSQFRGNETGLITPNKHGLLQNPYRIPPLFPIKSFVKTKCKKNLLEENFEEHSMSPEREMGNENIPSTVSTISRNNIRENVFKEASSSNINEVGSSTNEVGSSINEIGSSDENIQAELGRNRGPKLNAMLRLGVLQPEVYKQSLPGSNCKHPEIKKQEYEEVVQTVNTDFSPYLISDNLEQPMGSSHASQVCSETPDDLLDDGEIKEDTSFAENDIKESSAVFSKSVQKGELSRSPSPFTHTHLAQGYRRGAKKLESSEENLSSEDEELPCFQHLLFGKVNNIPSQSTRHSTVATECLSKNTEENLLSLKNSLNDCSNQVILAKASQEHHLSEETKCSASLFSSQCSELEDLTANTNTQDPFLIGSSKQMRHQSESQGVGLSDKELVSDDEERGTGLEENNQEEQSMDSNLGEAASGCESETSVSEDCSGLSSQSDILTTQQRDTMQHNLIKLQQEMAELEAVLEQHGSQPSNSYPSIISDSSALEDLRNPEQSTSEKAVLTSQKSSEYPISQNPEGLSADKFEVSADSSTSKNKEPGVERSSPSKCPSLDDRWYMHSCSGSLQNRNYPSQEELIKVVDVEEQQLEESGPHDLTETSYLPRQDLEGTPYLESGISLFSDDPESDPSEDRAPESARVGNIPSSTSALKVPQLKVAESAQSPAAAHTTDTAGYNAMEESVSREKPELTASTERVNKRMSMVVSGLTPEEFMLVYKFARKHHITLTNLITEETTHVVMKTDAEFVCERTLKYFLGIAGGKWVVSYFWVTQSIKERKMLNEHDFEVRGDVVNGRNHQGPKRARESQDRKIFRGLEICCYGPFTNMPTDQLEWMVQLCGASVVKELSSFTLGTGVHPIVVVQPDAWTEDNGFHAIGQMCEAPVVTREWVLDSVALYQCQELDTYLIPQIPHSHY
UniProt Q9BXW9: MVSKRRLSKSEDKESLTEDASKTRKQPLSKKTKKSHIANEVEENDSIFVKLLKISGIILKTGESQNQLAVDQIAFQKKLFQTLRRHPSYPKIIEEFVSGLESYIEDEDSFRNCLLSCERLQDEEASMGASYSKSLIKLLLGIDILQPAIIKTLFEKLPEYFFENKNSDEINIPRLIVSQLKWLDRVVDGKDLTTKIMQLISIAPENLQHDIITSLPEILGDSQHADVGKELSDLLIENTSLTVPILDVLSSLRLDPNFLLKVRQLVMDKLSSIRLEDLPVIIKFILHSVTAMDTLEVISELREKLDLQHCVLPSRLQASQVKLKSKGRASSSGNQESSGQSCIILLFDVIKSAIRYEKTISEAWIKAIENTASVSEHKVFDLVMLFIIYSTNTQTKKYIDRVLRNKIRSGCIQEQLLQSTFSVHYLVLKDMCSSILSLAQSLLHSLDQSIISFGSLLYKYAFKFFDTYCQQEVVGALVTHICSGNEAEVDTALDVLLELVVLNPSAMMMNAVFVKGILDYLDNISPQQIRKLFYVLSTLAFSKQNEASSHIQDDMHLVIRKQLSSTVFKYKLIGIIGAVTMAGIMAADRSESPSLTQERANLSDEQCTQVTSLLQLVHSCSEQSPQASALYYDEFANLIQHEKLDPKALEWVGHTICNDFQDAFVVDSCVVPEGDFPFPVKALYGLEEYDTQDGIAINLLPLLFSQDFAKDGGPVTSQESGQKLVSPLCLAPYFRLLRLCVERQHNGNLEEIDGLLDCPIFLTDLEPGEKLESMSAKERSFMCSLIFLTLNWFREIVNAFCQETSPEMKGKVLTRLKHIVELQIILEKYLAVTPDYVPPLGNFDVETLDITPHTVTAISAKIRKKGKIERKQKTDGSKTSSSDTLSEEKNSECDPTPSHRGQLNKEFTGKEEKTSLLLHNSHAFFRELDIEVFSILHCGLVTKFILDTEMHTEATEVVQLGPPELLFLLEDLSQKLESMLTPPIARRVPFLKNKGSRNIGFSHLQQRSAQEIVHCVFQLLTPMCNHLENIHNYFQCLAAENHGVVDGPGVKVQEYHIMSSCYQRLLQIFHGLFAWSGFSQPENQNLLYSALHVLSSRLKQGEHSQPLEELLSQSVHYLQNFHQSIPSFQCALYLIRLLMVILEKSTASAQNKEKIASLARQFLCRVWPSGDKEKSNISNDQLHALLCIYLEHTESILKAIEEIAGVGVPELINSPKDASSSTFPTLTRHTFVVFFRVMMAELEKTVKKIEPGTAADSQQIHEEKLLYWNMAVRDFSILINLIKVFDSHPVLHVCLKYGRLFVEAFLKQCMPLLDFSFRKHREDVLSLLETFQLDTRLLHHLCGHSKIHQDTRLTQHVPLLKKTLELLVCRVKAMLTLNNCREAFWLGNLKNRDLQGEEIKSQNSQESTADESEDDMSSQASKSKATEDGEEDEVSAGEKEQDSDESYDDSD

Legend:
[1] = biological target: T1, FLAG and HA epitope-tagged human DNA polymerase ν (POLN) (human) (UniProt Q7Z5Q5); assay: co-IP; FLAG-HA-POLN complex immunopurified (anti-FLAG, then anti-HA) from HeLa S3 nuclear extract; immunoblotting with specific antibodies
T1 sequence: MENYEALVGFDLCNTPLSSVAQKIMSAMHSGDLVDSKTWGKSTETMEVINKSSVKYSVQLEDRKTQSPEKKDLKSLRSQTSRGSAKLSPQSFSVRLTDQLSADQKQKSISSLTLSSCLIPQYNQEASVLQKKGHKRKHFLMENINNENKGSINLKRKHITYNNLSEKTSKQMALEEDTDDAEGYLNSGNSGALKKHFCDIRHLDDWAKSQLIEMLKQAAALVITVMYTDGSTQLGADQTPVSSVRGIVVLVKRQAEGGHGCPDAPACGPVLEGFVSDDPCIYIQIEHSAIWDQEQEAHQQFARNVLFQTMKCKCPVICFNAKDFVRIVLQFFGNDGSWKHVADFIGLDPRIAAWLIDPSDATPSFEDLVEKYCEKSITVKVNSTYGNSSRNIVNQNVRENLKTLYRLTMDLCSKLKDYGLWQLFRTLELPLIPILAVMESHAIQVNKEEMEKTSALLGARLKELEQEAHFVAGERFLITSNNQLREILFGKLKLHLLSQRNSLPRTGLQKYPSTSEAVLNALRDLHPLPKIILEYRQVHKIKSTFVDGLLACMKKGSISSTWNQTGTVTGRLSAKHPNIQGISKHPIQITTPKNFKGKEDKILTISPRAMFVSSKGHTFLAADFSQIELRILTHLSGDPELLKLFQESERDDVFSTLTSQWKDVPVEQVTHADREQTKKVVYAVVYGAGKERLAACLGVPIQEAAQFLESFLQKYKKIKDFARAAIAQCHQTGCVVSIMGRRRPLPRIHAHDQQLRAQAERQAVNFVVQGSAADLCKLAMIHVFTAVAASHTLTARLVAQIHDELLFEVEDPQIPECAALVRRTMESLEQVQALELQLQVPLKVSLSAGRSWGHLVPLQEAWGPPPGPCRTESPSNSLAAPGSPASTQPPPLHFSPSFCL

[2] = biological target: T2, FLAG and HA epitope-tagged FANCL (UniProt Q9NW38); assay: co-IP; FLAG-HA-FANCL complex immunopurified (anti-FLAG, then anti-HA) from nuclear extracts of HeLa S3 cells with or without 3 mM HU for 24 h; immunoblotting with specific antibodies
T2 sequence: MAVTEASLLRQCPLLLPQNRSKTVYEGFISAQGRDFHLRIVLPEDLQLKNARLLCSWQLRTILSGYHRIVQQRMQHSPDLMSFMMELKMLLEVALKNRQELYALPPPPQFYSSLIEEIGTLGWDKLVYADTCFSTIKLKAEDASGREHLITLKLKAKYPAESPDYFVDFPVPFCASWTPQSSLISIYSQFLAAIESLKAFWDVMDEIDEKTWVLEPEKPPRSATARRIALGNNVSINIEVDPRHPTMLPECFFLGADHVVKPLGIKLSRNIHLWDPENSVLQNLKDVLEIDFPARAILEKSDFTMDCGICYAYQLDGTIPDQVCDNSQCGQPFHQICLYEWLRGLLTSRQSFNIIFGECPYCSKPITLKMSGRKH

[3] = biological target: FLAG-HA epitope-tagged BRCA1 (human) (UniProt P38398); assay: co-IP; V5-POLN coexpressed with FLAG-HA-tagged BRCA1 or FANCJ in 293T cells; whole-cell extract sonicated, incubated in the presence of benzonase; sequential anti-FLAG and anti-HA immunoprecipitation; POLN detected with anti-V5
[4] = biological target: T3, FLAG-HA epitope-tagged FANCJ (human) (UniProt Q9BX63); assay: as above
T3 sequence: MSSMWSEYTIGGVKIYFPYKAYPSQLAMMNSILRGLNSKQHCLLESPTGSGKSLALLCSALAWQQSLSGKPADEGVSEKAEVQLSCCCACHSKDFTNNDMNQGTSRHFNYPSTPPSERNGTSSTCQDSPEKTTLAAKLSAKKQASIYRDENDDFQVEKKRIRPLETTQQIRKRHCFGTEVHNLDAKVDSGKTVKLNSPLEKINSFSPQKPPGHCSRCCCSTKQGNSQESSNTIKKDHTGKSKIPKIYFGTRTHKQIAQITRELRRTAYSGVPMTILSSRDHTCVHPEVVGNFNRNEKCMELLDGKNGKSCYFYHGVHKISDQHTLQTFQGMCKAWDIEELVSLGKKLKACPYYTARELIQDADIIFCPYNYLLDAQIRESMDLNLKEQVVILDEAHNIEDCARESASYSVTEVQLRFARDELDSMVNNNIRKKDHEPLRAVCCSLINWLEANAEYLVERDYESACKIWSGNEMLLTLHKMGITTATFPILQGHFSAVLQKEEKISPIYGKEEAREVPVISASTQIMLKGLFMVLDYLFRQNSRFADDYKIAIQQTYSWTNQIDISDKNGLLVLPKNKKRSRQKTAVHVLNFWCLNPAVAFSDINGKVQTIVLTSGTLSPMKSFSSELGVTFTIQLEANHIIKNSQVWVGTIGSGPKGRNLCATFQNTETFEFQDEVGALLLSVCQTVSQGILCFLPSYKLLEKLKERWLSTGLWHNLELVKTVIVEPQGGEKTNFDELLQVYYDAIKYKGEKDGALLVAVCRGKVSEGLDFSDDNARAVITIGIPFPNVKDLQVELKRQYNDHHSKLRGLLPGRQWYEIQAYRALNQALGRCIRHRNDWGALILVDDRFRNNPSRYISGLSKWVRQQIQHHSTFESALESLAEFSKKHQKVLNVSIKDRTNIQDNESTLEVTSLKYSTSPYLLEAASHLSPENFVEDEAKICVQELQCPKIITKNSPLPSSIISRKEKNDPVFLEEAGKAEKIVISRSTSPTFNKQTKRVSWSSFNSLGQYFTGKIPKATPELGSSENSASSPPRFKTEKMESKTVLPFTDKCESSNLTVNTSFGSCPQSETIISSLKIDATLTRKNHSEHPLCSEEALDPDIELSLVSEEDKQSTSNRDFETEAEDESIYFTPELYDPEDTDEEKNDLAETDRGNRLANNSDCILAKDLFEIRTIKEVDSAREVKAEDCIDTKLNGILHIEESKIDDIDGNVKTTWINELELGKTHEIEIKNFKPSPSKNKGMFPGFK

binding [1]: no binding
Molecule: FANCD2 (endogenous) (from UniProt Q9BXW9 1-1451)

binding [2]: binds
B1: FANCA (endogenous) (protein, UniProt O15360 1-1455)
chain: MSDSWVPNSASGQDPGGRRRAWAELLAGRVKREKYNPERAQKLKESAVRLLRSHQDLNALLLEVEGPLCKKLSLSKVIDCDSSEAYANHSSSFIGSALQDQASRLGVPVGILSAGMVASSVGQICTAPAETSHPVLLTVEQRKKLSSLLEFAQYLLAHSMFSRLSFCQELWKIQSSLLLEAVWHLHVQGIVSLQELLESHPDMHAVGSWLFRNLCCLCEQMEASCQHADVARAMLSDFVQMFVLRGFQKNSDLRRTVEPEKMPQVTVDVLQRMLIFALDALAAGVQEESSTHKIVRCWFGVFSGHTLGSVISTDPLKRFFSHTLTQILTHSPVLKASDAVQMQREWSFARTHPLLTSLYRRLFVMLSAEELVGHLQEVLETQEVHWQRVLSFVSALVVCFPEAQQLLEDWVARLMAQAFESCQLDSMVTAFLVVRQAALEGPSAFLSYADWFKASFGSTRGYHGCSKKALVFLFTFLSELVPFESPRYLQVHILHPPLVPGKYRSLLTDYISLAKTRLADLKVSIENMGLYEDLSSAGDITEPHSQALQDVEKAIMVFEHTGNIPVTVMEASIFRRPYYVSHFLPALLTPRVLPKVPDSRVAFIESLKRADKIPPSLYSTYCQACSAAEEKPEDAALGVRAEPNSAEEPLGQLTAALGELRASMTDPSQRDVISAQVAVISERLRAVLGHNEDDSSVEISKIQLSINTPRLEPREHMAVDLLLTSFCQNLMAASSVAPPERQGPWAALFVRTMCGRVLPAVLTRLCQLLRHQGPSLSAPHVLGLAALAVHLGESRSALPEVDVGPPAPGAGLPVPALFDSLLTCRTRDSLFFCLKFCTAAISYSLCKFSSQSRDTLCSCLSPGLIKKFQFLMFRLFSEARQPLSEEDVASLSWRPLHLPSADWQRAALSLWTHRTFREVLKEEDVHLTYQDWLHLELEIQPEADALSDTERQDFHQWAIHEHFLPESSASGGCDGDLQAACTILVNALMDFHQSSRSYDHSENSDLVFGGRTGNEDIISRLQEMVADLELQQDLIVPLGHTPSQEHFLFEIFRRRLQALTSGWSVAASLQRQRELLMYKRILLRLPSSVLCGSSFQAEQPITARCEQFFHLVNSEMRNFCSHGGALTQDITAHFFRGLLNACLRSRDPSLMVDFILAKCQTKCPLILTSALVWWPSLEPVLLCRWRRHCQSPLPRELQKLQEGRQFASDFLSPEAASPAPNPDWLSAAALHFAIQQVREENIRKQLKKLDCEREELLVFLFFFSLMGLLSSHLTSNSTTDLPKAFHVCAAILECLEKRKISWLALFQLTESDLRLGRLLLRVAPDQHTRLLPFAFYSLLSYFHEDAAIREEAFLHVAVDMYLKLVQLFVAGDTSTVSPPAGRSLELKGQGNPVELITKARLFLLQLIPRCPKKSFSHVAELLADRGDCDPEVSAALQSRQQAAPDADLSQEPHLF

binding [3]: binds | binding [4]: binds
B2: V5-tagged human POLN (enzyme, UniProt Q7Z5Q5 1-900)
chain: T1 sequence

binding [1]: no binding
B3: HELQ (endogenous) (protein, UniProt Q8TDG4 1-1101)
chain: MDECGSRIRRRVSLPKRNRPSLGCIFGAPTAAELVPGDEGKEEEEMVAENRRRKTAGVLPVEVQPLLLSDSPECLVLGGGDTNPDLLRHMPTDRGVGDQPNDSEVDMFGDYDSFTENSFIAQVDDLEQKYMQLPEHKKHATDFATENLCSESIKNKLSITTIGNLTELQTDKHTENQSGYEGVTIEPGADLLYDVPSSQAIYFENLQNSSNDLGDHSMKERDWKSSSHNTVNEELPHNCIEQPQQNDESSSKVRTSSDMNRRKSIKDHLKNAMTGNAKAQTPIFSRSKQLKDTLLSEEINVAKKTVESSSNDLGPFYSLPSKVRDLYAQFKGIEKLYEWQHTCLTLNSVQERKNLIYSLPTSGGKTLVAEILMLQELLCCRKDVLMILPYVAIVQEKISGLSSFGIELGFFVEEYAGSKGRFPPTKRREKKSLYIATIEKGHSLVNSLIETGRIDSLGLVVVDELHMIGEGSRGATLEMTLAKILYTSKTTQIIGMSATLNNVEDLQKFLQAEYYTSQFRPVELKEYLKINDTIYEVDSKAENGMTFSRLLNYKYSDTLKKMDPDHLVALVTEVIPNYSCLVFCPSKKNCENVAEMICKFLSKEYLKHKEKEKCEVIKNLKNIGNGNLCPVLKRTIPFGVAYHHSGLTSDERKLLEEAYSTGVLCLFTCTSTLAAGVNLPARRVILRAPYVAKEFLKRNQYKQMIGRAGRAGIDTIGESILILQEKDKQQVLELITKPLENCYSHLVQEFTKGIQTLFLSLIGLKIATNLDDIYHFMNGTFFGVQQKVLLKEKSLWEITVESLRYLTEKGLLQKDTIYKSEEEVQYNFHITKLGRASFKGTIDLAYCDILYRDLKKGLEGLVLESLLHLIYLTTPYDLVSQCNPDWMIYFRQFSQLSPAEQNVAAILGVSESFIGKKASGQAIGKKVDKNVVNRLYLSFVLYTLLKETNIWTVSEKFNMPRGYIQNLLTGTASFSSCVLHFCEELEEFWVYRALLVELTKKLTYCVKAELIPLMEVTGVLEGRAKQLYSAGYKSLMHLANANPEVLVRTIDHLSRRQAKQIVSSAKMLLHEKAEALQEEVEELLRLPSDFPGAVASSTDKA
